Source: patent publication US20160207996A1 (ARGEN X N V, published 2016)
These are yes or no findings as the source states them, for the method shown. Some results given as binding are weak or reduced against the parent protein; the word gives no strength.

By UniProt entry, the sequences of proteins in these tests, tags left out. Where a name states a change or a piece, a line headed by the entry shows the natural chain unless it says otherwise. Residues count along the entry.
UniProt P47871: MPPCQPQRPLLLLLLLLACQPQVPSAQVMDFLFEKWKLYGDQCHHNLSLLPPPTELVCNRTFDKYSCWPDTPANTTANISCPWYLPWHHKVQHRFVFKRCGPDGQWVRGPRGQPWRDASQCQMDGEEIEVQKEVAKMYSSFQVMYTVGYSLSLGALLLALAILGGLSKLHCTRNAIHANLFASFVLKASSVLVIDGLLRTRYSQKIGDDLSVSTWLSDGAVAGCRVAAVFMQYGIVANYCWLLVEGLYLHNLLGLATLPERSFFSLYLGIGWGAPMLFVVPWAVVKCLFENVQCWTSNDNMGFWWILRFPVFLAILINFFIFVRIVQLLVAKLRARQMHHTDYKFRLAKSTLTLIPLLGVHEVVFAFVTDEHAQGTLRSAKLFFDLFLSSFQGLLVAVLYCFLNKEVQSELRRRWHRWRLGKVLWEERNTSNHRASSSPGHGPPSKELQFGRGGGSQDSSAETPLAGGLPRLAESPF
glucagon receptor (GCGR), full length: residues 26-477 of P47871

Columns and labels:
[1] = biological target: glucagon receptor (GCGR), full length (human) (UniProt P47871); assay: flow cytometry on CHO-GCGR cells
[2] = biological target: glucagon receptor (GCGR), full length (human) (UniProt P47871); assay: mAb binding ELISA on coated GCGR lipoparticles, mAb 1 µg/ml
[3] = biological target: glucagon receptor (GCGR), full length (human) (UniProt P47871); assay: flow cytometry on CHO cells overexpressing GCGR, PE-mean [panel Binding mAb 6A1]
[4] = biological target: glucagon receptor (GCGR), full length (human) (UniProt P47871); assay: mAb binding ELISA, lipoparticles coated at 10 U/well, mAb 1 µg/ml, A450 [upper chart]
[5] = biological target: glucagon receptor (GCGR), full length (human) (UniProt P47871); assay: flow cytometry on transfected HEK293E cells, 1 µg/ml, PE mean; second bar with excess Nt-GCGR
[6] = biological target: glucagon receptor (GCGR), full length (human) (UniProt P47871); assay: flow cytometry on CHO cells overexpressing GCGR, PE-mean [panel Binding mAb 6A5]
[7] = biological target: glucagon receptor (GCGR), full length (human) (UniProt P47871); assay: flow cytometry on HEK293E-GCGR cells, mAb pre-incubated with 20-fold excess of Nt-domain
[8] = biological target: glucagon receptor (GCGR), full length (human) (UniProt P47871); assay: flow cytometry on HEK293E-GCGR cells
Nt-GCGR-hFc [9] = biological target: T1, Nt-GCGR-hFc (human, UniProt P47871 26-136); assay: mAb binding ELISA on coated Nt-GCGR-hFc, mAb 1 µg/ml
T1 construct: domain: N-terminal domain; also called Nt-GCGR-Fc; recombinant N-terminal domain of GCGR; not shown: hFc

Nt-GCGR-hFc [10] = biological target: T1, Nt-GCGR-hFc; assay: flow cytometry on HEK293E-GCGR cells with competition by soluble Nt-domain
Nt-GCGR-hFc [11] = biological target: T1, Nt-GCGR-hFc; assay: ELISA with a titration of biotin-Nt-GCGR (x axis) against the mAbs, OD620
[12] = biological target: glucagon receptor (GCGR), full length (human) (UniProt P47871); assay: mAb binding ELISA, lipoparticles coated at 10 U/well, mAb 1 µg/ml, A450 [lower chart]
[13] = biological target: glucagon receptor (GCGR), full length (human) (UniProt P47871); assay: FACS on GCGR cells in competition with Nt-GCGR-Fc
hNav1.7-loopC3-llama Fc = biological target: T2, hNav1.7-loopC3-llama Fc (human); assay: binding ELISA on coated loop-llama Fc chimera (20 ng/well), OD620
T2 construct: whole entry: loop C3, linker, llama Fc; also called hNav1.7-loopC3-llfc
T2 chain: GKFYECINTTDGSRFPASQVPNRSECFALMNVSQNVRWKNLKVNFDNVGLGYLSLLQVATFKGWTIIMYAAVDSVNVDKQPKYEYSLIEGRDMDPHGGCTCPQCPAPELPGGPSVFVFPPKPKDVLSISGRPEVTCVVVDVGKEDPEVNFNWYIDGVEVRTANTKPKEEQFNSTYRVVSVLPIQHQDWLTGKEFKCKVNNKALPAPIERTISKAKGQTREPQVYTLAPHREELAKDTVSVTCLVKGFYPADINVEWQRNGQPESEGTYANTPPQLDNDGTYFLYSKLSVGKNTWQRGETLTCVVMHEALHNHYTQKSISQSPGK
Protocol: For all DNA-immunization derived mAbs the binding affinity for the various hNav1.7-loop-llama Fc chimeras was tested in a binding ELISA. Therefore, a Maxisorp plate (Nunc) was coated with 20 ng/well of hNav1.7-loopA3-llama Fc, hNav1.7-loopB1-C1-D1-llama Fc or hNav1.7-loopC3-llama Fc. Remainder of the ELISA setup is as described above. […] Only at very high concentration minor cross-reactivity is observed for some clones.

Binder	binding [2]	binding [5]	binding (hNav1.7-loopC3-llama Fc)	other results
9C12 (antibody, V domains shown, chimeric llama-human, human IgG1 constant domains) VH: EVQLVQPGAEVRRPGAAVKVSCKASGFALISSYIDWVRQAPGQGLEWMGRIDPEDGGTSYAQKFQGRVTVTVDTATSTVYVELSSLRSDDTGVYFCMVGDSGYWGQGTQVTVSS VL: ATMLTQSPASLSVVPGESASISCKASQSLVHSDGKTYLYWLLQKPGQSPQRLIYQVSNRGSGVPDRFTGSGSGTDFTLKISGVKAEDAGVYYCAQHTYYPPSFGSGTRLEIK			no binding (tested: about 66 nM)	
9G6 (antibody, human IgG1, V domains shown) VH: EVQLVQPGAELTKPGASVKVSCNTSGYTFTGYYIDWVRQVPGEGLEWMGRIDPEDGDTKYAQKFQGRVTITADTSTTTAYMELSSLRSEDTAVYYCSLGVDYWGQGTQVTVSS VL: ATMLTQSPGSLSVVPGESASISCKTSQSLVHSDGKTYLYWLLQKPGQSPQRLIYQVSNRDSGVPDRFTGSGSGTDFTLKISGVKAEDAGVYYCAQTTYDPVTFGQGTKVELK			no binding (tested: about 66 nM)	
9A1 (antibody, V domains shown, chimeric llama-human, human IgG1 constant domains) VH: EVQLVQPGAELRNPGASVKVSCKASGDTFTDYYIHWVRQAPGQGLEWMGRIDPEDGGTKYTQKFQGRVTFTADTSTSTVYLELDSLRSEDTAVYYCVGDMDYWGKGTLVTVSS VL: QTVVTQEPSLSVSPGGTVTLTCGLSSGSVTFGNYPSWYQQTPGQAPRTLIYTTNSRHSGVPSRFSGSISGNKATLTISGAQPEDEADFYCALSRVSGTYGTVFGGGTHLTVL			no binding (tested: about 66 nM)	
9C3 (antibody, V domains shown, chimeric llama-human, human IgG1 constant domains) VH: EVQLVQPGAELRNPGTSVKVSCKTSGYYFTSSDIQWVRQAPAQGLEWMGRIDPEDGATKYAPKFQGRVTFTADTFTRTAYVELSNLRSDDTAVYYCMTAGGEYWGKGTLVTVSS VL: QPVLNQPSALSVSLGQTARITCQGGDFRNYYNNWYQQKPGQAPVLVIYEDSERPSGIPERFSGSSSGDTVILTVSRVQADDEADYYCQSSDSTDNAVFGGGTHLTVL			no binding (tested: about 66 nM)	
9F10 (antibody, human IgG1, V domains shown) VH: EVQLVQPGAEVRRPGAAVKVSCKASGFALISSYIDWVRQAPGQGLEWMGRIDPEDGGTSYAQKFQGRVTVTVDTATSTVYVELSSLRSDDTGVYFCMVGDSGYWGQGTQVTVSS VL: ATMLTQSPGSLSVGPGESASISCKAGQSLTHPNGKTYLSWLLQKPGQSPRRLIYETSNRDPGVPDRFTGSGSGTDFTLRIVGVTVEDAGVYYCAQTTYFPIAFGQGTKVELK			no binding (tested: about 66 nM)	

Further lines, with some results ahead:

binding [2]	binding [5]	Binder	binding (hNav1.7-loopC3-llama Fc)	other results
binds	binds	mAb 6A1 (antibody, IgG1, V domains shown) VH: EVQLVESGGGLVQPGGSLRLSCAASGFTFSRNAMTWVRQAPGKGLEWVSAISSTGNSITEADSVKGRFTISRDNAKNMLYLQMNSLKPEDTAVYYCAKLGGDTWYMEYWGQGTQVTVSS VL: SYELTQSPSMSVALRQTAKITCGGNNIGSKSAQWYQQKPGQAPVLVIYADNRRPSGIPERFSGSNSGNTATLTISGAQAEDEADYYCQVWDSSANAVFGRGTHLTVLG		binding [1]: binds; binding [3]: binds; binding [4]: binds
binds	binds	mAb 6A5 (antibody, IgG1, V domains shown) VH: EVQLQESGGGSVQPGGSLRLSCAASGFTFSANAMTWVRQAPGKGLEWVSAISGTGASTSYADSVKGRFTVSRDNAKNTLYLQVNNLKPEDTAVYRCAKLGGDTWYMEYWAKGTLVTVSS VL: SYELTQSPSVSVALRQTAKITCGGDNIGSKYVNWYQQKPSQTPVLVIYKDSNRPSGIPERFSGSNSGNTAALTISGAQAEDEADYYCQVWDGSAAVFGGGTHLSVLG		binding [6]: binds; binding [7]: binds; binding [4]: binds
binds	binds	mAb 6B3 (antibody, IgG1, V domains shown) VH: QLQVVESGGGLVQPGGSLRLSCAASGFTFSTYVMSWVRQAPGKGLEWVSGINSGGGSTSYADSVKGRFTISRDNAKNTLYLQMNSLKPEDTAVYYCAKVGDGSAWYYYYGMDYWGQGTQVTVSS VL: SSALTQPSAVSVSLGQTARITCQGGNLDGYYHAWYQQKPGQAPVQVIFGNNNRPSGIPERFSGSSSGGTTTLTISGAQAEDEADYYCQSYENSGYNIVFGGGTHLTVLG		binding [8]: binds; binding (Nt-GCGR-hFc [9]): binds; binding (Nt-GCGR-hFc [10]): binds; binding [4]: binds; binding (Nt-GCGR-hFc [11]): binds
binds		mAb 6B7 (antibody, IgG1, V domains shown) VH: QLQLVESGGGLVQPGGSLRLSCAASGFTFSSNAMTWVRQAPGKGLEWVSAISSTGNSITEADSVKGRFTISRDNAKNMLYLQMNSLKPEDTAVYYCAKLGGDTWYMEYWGQGTQVTVSS VL: SSALTQPSAVSVSLGQTARITCQGDNFGSIDPHWYQQKPGQDPVVVIYQYNNRPSGIPERFSGLKSGNTATLIISGAQAEDEADYYCQLWDSRAKAVFGGGTHLTVLG		binding [12]: binds
binds		mAb 6D8 (antibody, IgG1, V domains shown) VH: QLQLVESGGGLVQPGGSLRLSCAASGFTFSSNAMTWVRQAPGKGLEWVSAISSTGNSITEADSVKGRFTISRDNAKNMLYLQMNSLKPEDTAVYYCAKLGGDTWYMEYWGQGTQVTVSS VL: SYELTQSPSVSVALRQTAKITCGGNGIGSKIVHWYQQKPGQAPVLVIYADVRRPSEIPERFSGSNSGDTATLTVSGAQAEDEADYYCQVWDSSANAAVFGGGTHLTVLG		binding [12]: binds
	binds	mAb 9A4 (GCGR) (antibody, V domains shown) VH: QVQLVESGGGLVQPGGSLRLSCAASGFTFSSNAMSWVRQAPGKGLEWVSAISASGATTAYADSVRGRFTISRDNAKNTLYLQMNSLKPDDTAVYYCAKSEGATWYYAYWGQGTQVTVSS VL: SYELTQSPSVSVALRQAAKITCGGDNIASKYVNWYQQKPGQAPVLVIYKDSSRPSGIPERFSGSNSGNTATLTVSGAQAEDEADYYCQVWDNSAAVFGGGTHLTVLG		binding [13]: binds
	binds	mAb 9C8 (GCGR) (antibody, V domains shown) VH: QVQLVESGGGLVQPGGSLRLSCAASGFTFSSNAMSWVRQAPGKGLEWVSAISASGATTAYADSVRGRFTISRDNAKNTLYLQMNSLKPDDTAVYYCAKSEGATWYYAYWGQGTQVTVSS VL: QPVLNQPSALSVTLGQTAKITCQGGSLGSSYAHWYQQKPGQAPVLVIYADNRRPSGTPERFSGSNSGNTATLTISGAQAEDEADYYCQVWDSSANAVFGGGTHLTVLG		binding [13]: binds
